The results in this text go back to the supplement of paper PMC10849652.

The chains behind the UniProt entries cited, without tags or fusion partners. Where a name states a change or a piece, a line headed by the entry shows the natural chain unless it says otherwise.
UniProt Q14344, whole entry, looked up: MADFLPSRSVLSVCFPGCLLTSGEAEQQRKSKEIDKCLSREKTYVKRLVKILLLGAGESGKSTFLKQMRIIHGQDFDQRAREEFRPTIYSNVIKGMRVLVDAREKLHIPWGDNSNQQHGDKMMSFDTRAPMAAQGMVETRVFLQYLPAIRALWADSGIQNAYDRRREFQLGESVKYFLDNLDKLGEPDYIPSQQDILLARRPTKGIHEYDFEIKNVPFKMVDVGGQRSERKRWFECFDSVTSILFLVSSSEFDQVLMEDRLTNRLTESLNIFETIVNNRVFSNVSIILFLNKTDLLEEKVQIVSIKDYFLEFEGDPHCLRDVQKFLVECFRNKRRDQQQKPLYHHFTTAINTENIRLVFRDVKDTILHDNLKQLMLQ
UniProt Q8IW92: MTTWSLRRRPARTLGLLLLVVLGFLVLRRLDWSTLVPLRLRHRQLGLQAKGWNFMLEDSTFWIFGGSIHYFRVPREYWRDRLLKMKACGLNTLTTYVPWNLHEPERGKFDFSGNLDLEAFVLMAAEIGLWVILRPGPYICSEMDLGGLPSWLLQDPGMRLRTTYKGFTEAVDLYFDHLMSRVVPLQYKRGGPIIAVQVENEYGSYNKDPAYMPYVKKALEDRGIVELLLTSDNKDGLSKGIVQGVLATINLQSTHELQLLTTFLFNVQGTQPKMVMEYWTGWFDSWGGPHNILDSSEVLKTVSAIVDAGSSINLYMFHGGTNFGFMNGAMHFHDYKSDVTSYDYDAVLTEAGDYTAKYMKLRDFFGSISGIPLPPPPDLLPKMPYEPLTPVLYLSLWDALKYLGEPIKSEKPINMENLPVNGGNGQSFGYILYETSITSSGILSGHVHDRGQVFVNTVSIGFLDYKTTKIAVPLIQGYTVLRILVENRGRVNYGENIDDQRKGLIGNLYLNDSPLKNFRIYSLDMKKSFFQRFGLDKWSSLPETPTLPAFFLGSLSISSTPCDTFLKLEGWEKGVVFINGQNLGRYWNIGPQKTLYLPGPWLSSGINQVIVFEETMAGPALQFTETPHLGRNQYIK
UniProt P32189: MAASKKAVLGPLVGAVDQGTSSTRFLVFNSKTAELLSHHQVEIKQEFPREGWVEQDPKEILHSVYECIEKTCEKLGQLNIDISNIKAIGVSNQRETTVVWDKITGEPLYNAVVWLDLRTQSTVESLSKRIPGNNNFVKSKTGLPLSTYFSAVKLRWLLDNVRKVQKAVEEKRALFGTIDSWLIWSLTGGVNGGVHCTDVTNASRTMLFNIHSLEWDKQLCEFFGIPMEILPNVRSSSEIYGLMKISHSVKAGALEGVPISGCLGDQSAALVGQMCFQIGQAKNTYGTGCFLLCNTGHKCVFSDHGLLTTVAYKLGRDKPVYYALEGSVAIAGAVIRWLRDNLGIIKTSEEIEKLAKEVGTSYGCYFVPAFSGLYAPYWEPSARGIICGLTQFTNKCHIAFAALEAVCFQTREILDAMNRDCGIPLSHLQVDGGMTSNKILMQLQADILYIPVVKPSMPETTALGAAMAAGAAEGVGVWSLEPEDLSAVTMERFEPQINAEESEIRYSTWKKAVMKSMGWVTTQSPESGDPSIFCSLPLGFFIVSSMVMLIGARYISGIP
UniProt Q9NQX3: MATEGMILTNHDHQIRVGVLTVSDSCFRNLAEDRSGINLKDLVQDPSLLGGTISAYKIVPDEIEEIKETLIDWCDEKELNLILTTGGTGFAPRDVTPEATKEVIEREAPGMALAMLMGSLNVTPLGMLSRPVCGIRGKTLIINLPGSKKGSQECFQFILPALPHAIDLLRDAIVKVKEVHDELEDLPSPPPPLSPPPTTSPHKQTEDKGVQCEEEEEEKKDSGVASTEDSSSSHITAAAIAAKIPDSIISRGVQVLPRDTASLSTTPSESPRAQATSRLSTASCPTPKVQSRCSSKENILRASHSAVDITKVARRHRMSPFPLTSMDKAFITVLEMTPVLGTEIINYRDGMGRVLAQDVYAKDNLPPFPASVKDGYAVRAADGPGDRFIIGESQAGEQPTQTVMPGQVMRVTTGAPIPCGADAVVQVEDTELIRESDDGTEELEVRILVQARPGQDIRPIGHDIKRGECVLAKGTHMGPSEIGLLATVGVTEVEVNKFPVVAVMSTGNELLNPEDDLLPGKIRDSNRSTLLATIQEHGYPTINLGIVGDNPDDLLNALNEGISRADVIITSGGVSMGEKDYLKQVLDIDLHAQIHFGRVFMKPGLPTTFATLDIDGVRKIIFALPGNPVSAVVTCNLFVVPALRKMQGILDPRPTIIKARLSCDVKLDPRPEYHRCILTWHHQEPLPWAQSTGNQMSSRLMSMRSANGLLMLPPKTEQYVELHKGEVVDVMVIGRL
UniProt Q14749: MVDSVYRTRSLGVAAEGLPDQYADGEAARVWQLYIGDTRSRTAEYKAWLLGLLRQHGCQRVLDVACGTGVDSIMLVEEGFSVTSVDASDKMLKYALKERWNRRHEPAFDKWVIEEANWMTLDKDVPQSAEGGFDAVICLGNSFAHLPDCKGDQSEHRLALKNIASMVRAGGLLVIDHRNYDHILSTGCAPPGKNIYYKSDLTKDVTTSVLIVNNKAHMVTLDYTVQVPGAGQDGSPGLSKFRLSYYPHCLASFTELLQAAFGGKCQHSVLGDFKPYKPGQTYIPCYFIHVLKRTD
UniProt Q8TDQ7: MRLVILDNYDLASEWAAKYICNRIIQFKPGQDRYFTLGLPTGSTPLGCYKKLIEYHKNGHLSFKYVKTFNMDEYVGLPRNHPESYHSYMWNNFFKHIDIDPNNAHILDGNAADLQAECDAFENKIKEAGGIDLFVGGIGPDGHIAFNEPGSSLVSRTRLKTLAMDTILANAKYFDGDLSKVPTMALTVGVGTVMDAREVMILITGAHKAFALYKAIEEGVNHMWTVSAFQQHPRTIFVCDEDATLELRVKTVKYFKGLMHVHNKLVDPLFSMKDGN
UniProt P17900: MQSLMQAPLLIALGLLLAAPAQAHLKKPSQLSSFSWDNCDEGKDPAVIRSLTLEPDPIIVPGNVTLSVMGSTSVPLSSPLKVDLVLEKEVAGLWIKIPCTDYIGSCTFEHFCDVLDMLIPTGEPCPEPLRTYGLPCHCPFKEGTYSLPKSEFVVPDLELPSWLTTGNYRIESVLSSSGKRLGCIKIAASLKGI
UniProt P46926: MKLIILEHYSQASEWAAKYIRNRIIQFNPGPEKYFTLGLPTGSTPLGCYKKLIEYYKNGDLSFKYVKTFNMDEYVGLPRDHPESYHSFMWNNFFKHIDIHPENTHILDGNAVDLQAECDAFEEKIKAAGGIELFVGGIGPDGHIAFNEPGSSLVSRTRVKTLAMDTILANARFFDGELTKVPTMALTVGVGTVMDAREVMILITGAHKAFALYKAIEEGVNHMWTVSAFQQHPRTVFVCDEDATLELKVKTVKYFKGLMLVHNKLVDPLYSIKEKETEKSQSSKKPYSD
UniProt Q04760: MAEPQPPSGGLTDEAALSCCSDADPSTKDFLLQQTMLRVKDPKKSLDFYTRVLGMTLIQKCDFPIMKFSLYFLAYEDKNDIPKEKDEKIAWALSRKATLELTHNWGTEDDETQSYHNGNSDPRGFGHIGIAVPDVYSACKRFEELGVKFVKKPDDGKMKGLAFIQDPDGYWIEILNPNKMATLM
UniProt O95249: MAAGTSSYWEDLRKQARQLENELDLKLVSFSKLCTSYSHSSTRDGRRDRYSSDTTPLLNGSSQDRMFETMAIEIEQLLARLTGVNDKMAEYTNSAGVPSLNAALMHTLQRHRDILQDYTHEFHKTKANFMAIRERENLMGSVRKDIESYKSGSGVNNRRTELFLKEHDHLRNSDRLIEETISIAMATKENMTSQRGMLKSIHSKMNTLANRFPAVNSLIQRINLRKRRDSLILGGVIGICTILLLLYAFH
UniProt Q9HC38: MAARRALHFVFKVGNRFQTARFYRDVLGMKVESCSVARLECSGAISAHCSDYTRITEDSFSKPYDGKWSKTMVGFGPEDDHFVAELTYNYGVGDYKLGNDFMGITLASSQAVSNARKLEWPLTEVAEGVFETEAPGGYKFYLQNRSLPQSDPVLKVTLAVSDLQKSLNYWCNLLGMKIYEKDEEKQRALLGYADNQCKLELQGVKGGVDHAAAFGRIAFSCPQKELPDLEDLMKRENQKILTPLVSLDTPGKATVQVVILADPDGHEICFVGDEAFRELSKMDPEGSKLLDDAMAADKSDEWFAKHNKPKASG
UniProt Q8N954: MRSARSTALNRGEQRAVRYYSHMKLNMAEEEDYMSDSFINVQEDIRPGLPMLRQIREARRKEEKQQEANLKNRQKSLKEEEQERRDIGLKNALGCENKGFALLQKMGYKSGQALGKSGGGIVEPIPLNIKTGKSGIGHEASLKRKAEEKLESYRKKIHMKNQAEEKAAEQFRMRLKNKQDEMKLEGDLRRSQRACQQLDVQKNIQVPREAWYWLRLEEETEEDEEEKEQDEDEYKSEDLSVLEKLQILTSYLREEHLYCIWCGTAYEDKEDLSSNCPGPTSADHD
UniProt Q9BRX5: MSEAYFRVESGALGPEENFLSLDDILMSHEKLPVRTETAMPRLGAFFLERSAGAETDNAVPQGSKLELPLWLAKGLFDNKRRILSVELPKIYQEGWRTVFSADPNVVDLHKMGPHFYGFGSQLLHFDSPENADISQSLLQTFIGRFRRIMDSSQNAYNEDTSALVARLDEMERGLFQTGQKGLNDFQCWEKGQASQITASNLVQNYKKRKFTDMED
UniProt P17174: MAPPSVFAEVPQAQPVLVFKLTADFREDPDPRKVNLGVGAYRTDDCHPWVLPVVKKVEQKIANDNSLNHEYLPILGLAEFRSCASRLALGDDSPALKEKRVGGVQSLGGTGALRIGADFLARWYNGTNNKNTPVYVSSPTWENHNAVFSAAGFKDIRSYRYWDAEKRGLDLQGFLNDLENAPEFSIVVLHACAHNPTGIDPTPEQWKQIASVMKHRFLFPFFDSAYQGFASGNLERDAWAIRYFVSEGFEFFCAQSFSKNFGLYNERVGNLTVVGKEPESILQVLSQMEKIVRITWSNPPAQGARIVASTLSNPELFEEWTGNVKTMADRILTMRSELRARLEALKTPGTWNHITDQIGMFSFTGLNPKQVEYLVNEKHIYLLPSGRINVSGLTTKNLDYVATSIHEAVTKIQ
UniProt Q13098: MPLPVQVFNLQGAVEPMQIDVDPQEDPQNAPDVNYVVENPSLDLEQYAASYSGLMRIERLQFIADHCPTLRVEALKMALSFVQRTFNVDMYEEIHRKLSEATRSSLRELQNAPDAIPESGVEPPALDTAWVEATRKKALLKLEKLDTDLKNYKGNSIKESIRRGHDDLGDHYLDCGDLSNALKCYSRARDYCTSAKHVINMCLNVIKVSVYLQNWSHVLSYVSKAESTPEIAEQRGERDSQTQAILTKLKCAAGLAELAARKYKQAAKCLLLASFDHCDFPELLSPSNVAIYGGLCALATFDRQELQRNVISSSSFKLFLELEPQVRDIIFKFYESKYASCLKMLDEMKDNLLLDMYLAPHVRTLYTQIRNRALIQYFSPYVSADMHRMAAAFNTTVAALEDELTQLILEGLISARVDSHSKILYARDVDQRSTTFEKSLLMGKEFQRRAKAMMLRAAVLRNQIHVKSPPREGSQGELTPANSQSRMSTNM
UniProt O75496: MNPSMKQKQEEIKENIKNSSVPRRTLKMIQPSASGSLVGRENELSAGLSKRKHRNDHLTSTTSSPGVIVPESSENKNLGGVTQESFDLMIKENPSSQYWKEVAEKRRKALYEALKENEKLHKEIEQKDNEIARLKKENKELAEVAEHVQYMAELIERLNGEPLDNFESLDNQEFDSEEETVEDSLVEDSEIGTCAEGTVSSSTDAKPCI
UniProt Q9H9Y4: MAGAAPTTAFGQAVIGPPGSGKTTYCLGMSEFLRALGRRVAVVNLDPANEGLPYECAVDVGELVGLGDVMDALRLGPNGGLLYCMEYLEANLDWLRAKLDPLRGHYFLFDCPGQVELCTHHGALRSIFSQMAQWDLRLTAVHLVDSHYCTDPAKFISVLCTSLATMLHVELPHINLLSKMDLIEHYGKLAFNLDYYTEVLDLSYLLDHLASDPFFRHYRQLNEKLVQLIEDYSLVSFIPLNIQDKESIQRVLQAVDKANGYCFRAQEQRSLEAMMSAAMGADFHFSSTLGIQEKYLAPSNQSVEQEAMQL
UniProt Q53EU6: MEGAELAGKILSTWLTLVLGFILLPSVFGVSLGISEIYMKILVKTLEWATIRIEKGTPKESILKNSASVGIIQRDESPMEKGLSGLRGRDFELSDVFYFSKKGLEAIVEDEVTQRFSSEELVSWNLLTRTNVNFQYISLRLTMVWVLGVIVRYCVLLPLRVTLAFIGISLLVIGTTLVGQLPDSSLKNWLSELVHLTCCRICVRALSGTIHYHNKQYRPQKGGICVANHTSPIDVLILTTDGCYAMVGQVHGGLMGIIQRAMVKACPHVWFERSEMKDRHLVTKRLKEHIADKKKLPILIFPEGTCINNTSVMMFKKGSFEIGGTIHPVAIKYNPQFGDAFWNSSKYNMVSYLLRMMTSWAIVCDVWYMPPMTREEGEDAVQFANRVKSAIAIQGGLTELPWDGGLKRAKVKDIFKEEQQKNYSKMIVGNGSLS

The other results are listed elsewhere or left out.

Compound in this experiment: CNc1nc(-c2ccc3c(N)n[nH]c3c2)cc(N2C[C@@H](C(=O)NC3CCCCC3)CC[C@H]2C)n1
Nature of the experiment: log2 fold change, soluble protein after heating vs DMSO (PISA); higher = thermal stabilisation; K562 cells, 10 uM, 30 min; active = over 0.2 and 3.5 SD of the protein, either way, in both replicates (recomputed). The essentials:
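K562 cells at 2×10^6 cells/mL were treated with 10 μM compound for 30 min. Aliquots were heated for 3 min across 48°C-58°C, pooled, and extracted in PBS with 0.5% NP-40 at 4°C; soluble protein was the supernatant after 21,000xg for 90 min. Soluble protein was quantified by TMTpro 16plex LC-MS/MS with channel sums equalised, and reported as log2 fold change in thermal stability against DMSO controls, with values from duplicates.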
As to GNA13 (UniProt Q14344), the log2 fold change was inactive: 0.021.

Regarding GLB1L2 (UniProt Q8IW92), the log2 fold change was inactive: -0.044.

GK (UniProt P32189): the log2 fold change was inactive: -0.025.

For GPHN isoform 2 (UniProt Q9NQX3), the log2 fold change was inactive: -0.025.

Regarding GNPNAT1 (UniProt Q96EK6), the log2 fold change is inactive: -0.014.

In the case of GMPR (UniProt P36959), the log2 fold change is inactive: 0.005.

Take GNMT (UniProt Q14749): the log2 fold change was inactive: -0.055.

With GMDS (UniProt O60547), the log2 fold change was inactive: -0.021.

Turning to GNPDA2 (UniProt Q8TDQ7), the log2 fold change is inactive: -0.015.

Take GPBP1L1 (UniProt Q9HC44): the log2 fold change was inactive: 0.008.

Regarding GM2A (UniProt P17900), the log2 fold change was inactive: -0.041.

Turning to GMPPA (UniProt Q96IJ6), the log2 fold change was inactive: -0.003.

With GOLGA5 (UniProt Q8TBA6), the log2 fold change is inactive: -0.098.

On to GRIPAP1 (UniProt Q4V328), for which the log2 fold change is inactive: -0.018.

In the case of GRPEL1 (UniProt Q9HAV7), the log2 fold change is inactive: -0.035.

GOT2 (UniProt P00505): the log2 fold change is inactive: -0.01.

As to GNA12 (UniProt Q03113), the log2 fold change is inactive: -0.143.

On to GPR107 (UniProt Q5VW38), for which the log2 fold change was inactive: -0.026.

Regarding GNPDA1 (UniProt P46926), the log2 fold change was inactive: -0.028.

Consider GLO1 (UniProt Q04760), for which the log2 fold change was inactive: -0.03.

As for GOSR1 (UniProt O95249), the log2 fold change is inactive: -0.037.

Regarding GOLGA7 (UniProt Q7Z5G4), the log2 fold change was inactive: 0.011.

Take GOSR2 isoform 2 (UniProt O14653): the log2 fold change is inactive: -0.011.

Take GNB1L (UniProt Q9BYB4): the log2 fold change was inactive: -0.009.

Take GLOD4 isoform 2 (UniProt Q9HC38): the log2 fold change is inactive: 0.003.

For GPATCH11 (UniProt Q8N954), the log2 fold change was inactive: -0.03.

As for GLG1 isoform 2 (UniProt Q92896), the log2 fold change is inactive: -0.053.

Regarding GPATCH1 (UniProt Q9BRR8), the log2 fold change was inactive: -0.113.

As to GINS3 (UniProt Q9BRX5), the log2 fold change was inactive: 0.028.

As for GNE isoform 2 (UniProt Q9Y223), the log2 fold change is inactive: -0.019.

Turning to GPRIN1 (UniProt Q7Z2K8), the log2 fold change is inactive: 0.035.

For GOT1 (UniProt P17174), the log2 fold change was inactive: -0.01.

For GPBP1 isoform 2 (UniProt Q86WP2), the log2 fold change was inactive: -0.002.

Take GPS1 isoform 7 (UniProt Q13098): the log2 fold change is inactive: -0.032.

Regarding GMNN (UniProt O75496), the log2 fold change is inactive: -0.006.

For GPD2 (UniProt P43304), the log2 fold change was inactive: -0.06.

In the case of GPN2 (UniProt Q9H9Y4), the log2 fold change was inactive: -0.01.

For GPAT3 (UniProt Q53EU6), the log2 fold change is inactive: 0.015.
